Earlier results as cited in patent US20250295655A1, “BRUTON'S KINASE INHIBITORS FOR THE TREATMENT OF A SUDDEN ALLERGIC REACTION” (ALK-ABELLÓ A/S, priority 2022, published 2025).
For at least one compound, name, drawing or mass did not settle the structure.

Test system: IgE-mediated anaphylaxis in mice
Details: two oral doses 16 hours and 4 hours before allergen exposure; cited from earlier work

CC#CC(=O)N1CCC[C@H]1c1nc(-c2ccc(C(=O)Nc3ccccn3)cc2)c2c(N)nccn12 [Acalabrutinib]
death during severe anaphylaxis: significantly protected against death
